These are yes or no findings as the source states them, for the method shown. Some binding calls cover weakened binding; strength is not graded here.
How the values were obtained:
[1] = target: T1, human CD3 on primary human pan-T cells (human, UniProt P07766 23-207; P09693 23-182; P04234 22-171; P20963 22-164); test: Mirrorball cytometry on primary human pan-T cells
T1 construct: whole, on cells; Native complex on T cells isolated from PBMC; also called CD3 on Pan-T cells

Sequences of proteins named here, by UniProt entry; tags and fusion partners are left off. A change or cut given only in a name is not applied to a line headed by its entry.
UniProt P07766: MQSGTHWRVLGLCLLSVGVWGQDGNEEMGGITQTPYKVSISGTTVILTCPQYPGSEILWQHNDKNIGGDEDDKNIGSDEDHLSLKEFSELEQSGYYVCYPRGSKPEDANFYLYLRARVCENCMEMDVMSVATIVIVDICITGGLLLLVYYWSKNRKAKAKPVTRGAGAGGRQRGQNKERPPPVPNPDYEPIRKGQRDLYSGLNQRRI
UniProt P20138: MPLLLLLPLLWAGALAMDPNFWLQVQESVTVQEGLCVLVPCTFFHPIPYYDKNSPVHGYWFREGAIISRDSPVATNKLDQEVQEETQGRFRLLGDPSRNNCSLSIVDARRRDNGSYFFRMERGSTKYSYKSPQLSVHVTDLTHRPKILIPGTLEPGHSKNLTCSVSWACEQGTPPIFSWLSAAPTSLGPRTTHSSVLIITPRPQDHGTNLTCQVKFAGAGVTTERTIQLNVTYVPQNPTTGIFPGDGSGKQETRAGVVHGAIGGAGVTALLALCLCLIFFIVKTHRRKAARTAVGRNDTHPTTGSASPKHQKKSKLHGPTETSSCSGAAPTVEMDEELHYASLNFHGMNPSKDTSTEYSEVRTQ
UniProt P26951: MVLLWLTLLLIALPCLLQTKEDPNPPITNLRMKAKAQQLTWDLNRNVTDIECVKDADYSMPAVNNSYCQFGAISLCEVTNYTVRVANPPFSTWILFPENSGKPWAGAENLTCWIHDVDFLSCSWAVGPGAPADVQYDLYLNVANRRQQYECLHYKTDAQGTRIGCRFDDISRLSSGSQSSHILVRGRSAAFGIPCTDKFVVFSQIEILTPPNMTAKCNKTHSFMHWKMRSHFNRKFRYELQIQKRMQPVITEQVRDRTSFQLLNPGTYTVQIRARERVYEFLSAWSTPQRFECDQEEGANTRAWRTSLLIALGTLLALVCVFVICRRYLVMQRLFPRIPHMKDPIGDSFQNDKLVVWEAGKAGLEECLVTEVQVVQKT
UniProt P32970: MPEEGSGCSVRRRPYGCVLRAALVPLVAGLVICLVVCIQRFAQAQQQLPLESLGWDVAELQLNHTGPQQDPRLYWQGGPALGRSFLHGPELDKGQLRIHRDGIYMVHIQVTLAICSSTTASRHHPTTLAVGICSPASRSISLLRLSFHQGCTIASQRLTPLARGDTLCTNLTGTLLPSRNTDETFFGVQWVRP

[2] = target: T1, human CD3 on primary human pan-T cells; test: Mirrorball laser scanning cytometry on primary human pan-T cells, anti-penta-His Alexa Fluor 488 detection, 600 µM HSA
[3] = target: Molm-13 N1 tumor cells (carrying CD123, CD33 and CD70) (human) (UniProt P20138+P26951+P32970); test: flow cytometry on Molm-13 N1 cells, anti-DARPin rabbit antibody and Alexa Fluor 647 secondary antibody, 20 µM HSA

Row | binding [1] | binding [2] | binding [3] | Binder
1 | binds | binds | – | DARPin® protein #13 (designed binder, not shown: small tags and cut ends) DLGKKLLEAARAGQDDEVRELLKAGADVNAKDYFSHTPLHLAARNGHLKIVEVLLKAGADVNAKDFAGKTPLHLAAADGHLEIVEVLLKAGADVNAQDIFGKTPADIAADAGHEDIAEVLQKAAGSPTPTPTTPTPTPTTPTPTPTGSDLGKKLLEAARAGQDDEVRILMANGADVNALDWLGHTPLHLAAYEGHLEIVEVLLKNGADVNAIDDNNGFTPLHLAAIDGHLEIVEVLLKNGADVNAQDKFGKTAFDISIDNGNEDLAEILQKAAGSPTPTPTTPTPTPTTPTPTPTGSDLGDKLLLAATSGQDDEVRILLAAGADVNAKDYDGDTPLHLAADEGHLEIVEVLLKAGADVNAKDYSGSTPLHAAAAYGHLEIVEVLLKAGADVNAQDVFGYTPADLAAYVGHEDIAEVLQKAAGSPTPTPTTPTPTPTTPTPTPTGSDLGQKLLEAAWAGQDDEVRELLKAGADVNAKNSRGWTPLHTAAQTGHLEIFEVLLKAGADVNAKNDKRVTPLHLAAALGHLEIVEVLLKAGADVNARDSWGTTPADLAAKYGHQDIAEVLQKAA
2 | binds | – | – | DARPin® protein #12 (designed binder, not shown: small tags and cut ends) DLGKKLLEAARAGQDDEVRELLKAGADVNAKDYFSHTPLHLAARNGHLKIVEVLLKAGADVNAKDFAGKTPLHLAAADGHLEIVEVLLKAGADVNAQDIFGKTPADIAADAGHEDIAEVLQKAAGSPTPTPTTPTPTPTTPTPTPTGSDLGKKLLEAARAGQDDEVRILMANGADVNALDWLGHTPLHLAAYEGHLEIVEVLLKNGADVNAIDDNNGFTPLHLAAIDGHLEIVEVLLKNGADVNAQDKFGKTAFDISIDNGNEDLAEILQKAAGSPTPTPTTPTPTPTTPTPTPTGSDLGDKLLLAATSGQDDEVRILLAAGADVNAKDYDGDTPLHLAADEGHLEIVEVLLKAGADVNAKDYSGSTPLHAAAAYGHLEIVEVLLKAGADVNAQDVFGYTPADLAAYVGHEDIAEVLQKAAGSPTPTPTTPTPTPTTPTPTPTGSDLGQKLLEAAWAGQDDEVRELLKAGADVNAKNSRGWTPLHTAAQTGHLEIFEVLLKAGADVNAKDDKGVTPLHLAAALGHLEIVEVLLKAGADVNAQDSWGTTPADLAAKYGHEDIAEVLQKAA
3 | binds | binds | – | DARPin® protein #14 (designed binder, HSA-CD123-CD33-CD3, half-life extended form of #10; not shown: His-tag implied by anti-penta-His detection) DLGKKLLEAARAGQDDEVRELLKAGADVNAKDYFSHTPLHLAARNGHLKIVEVLLKAGADVNAKDFAGKTPLHLAAADGHLEIVEVLLKAGADVNAQDIFGKTPADIAADAGHEDIAEVLQKAAGSPTPTPTTPTPTPTTPTPTPTGSDLGKKLLEAARAGQDDEVRILMANGADVNALDWLGHTPLHLAAYEGHLEIVEVLLKNGADVNAIDDNNGFTPLHLAAIDGHLEIVEVLLKNGADVNAQDKFGKTAFDISIDNGNEDLAEILQKAAGSPTPTPTTPTPTPTTPTPTPTGSDLGDKLLLAATSGQDDEVRILLAAGADVNAKDYDGDTPLHLAADEGHLEIVEVLLKAGADVNAKDYSGSTPLHAAAAYGHLEIVEVLLKAGADVNAQDVFGYTPADLAAYVGHEDIAEVLQKAAGSPTPTPTTPTPTPTTPTPTPTGSDLGQKLLEAAWAGQLDEVRILLKAGADVNAKNSRGWTPLHTAAQTGHLEIFEVLLKAGADVNAKTNKRVTPLHLAAALGHLEIVEVLLKAGADVNARDTWGTTPADLAAKYGHRDIAEVLQKAA
4 | – | – | binds | DARPin® protein #61 (designed binder, HSA-HSA-CD70-CD123-CD33-CD3) DLGKKLLEAARAGQDDEVRELLKAGADVNAKDYFSHTPLHLAARNGHLKIVEVLLKAGADVNAKDFAGKTPLHLAAADGHLEIVEVLLKAGADVNAQDIFGKTPADIAADAGHEDIAEVLQKAAGSPTPTPTTPTPTPTTPTPTPTGSDLGKKLLEAARAGQDDEVRELLKAGADVNAKDYFSHTPLHLAARNGHLKIVEVLLKAGADVNAKDFAGKTPLHLAAADGHLEIVEVLLKAGADVNAQDIFGKTPADIAADAGHEDIAEVLQKAAGSPTPTPTTPTPTPTTPTPTPTGSDLGKKLLQAARAGQLDEVRELLKAGADVNAKDQQGLTPLHIAANLGHLEIVEVLLKAGADVNAKDLFGLTPLHLAAFEGHLEIVEVLLKAGADVNAKDQHGATPLHLAAWVGHLEIVEVLLKAGADVNAQDKSGKTPADLAARAGHQDIAEVLQKAAGSPTPTPTTPTPTPTTPTPTPTGSDLGKKLLQAALEGQLDEVRELLKAGADVNAKDIEGYTPLHLAAALGHLEIVEVLLKAGADVNAKDQIGRTPLHLAAYKGHLEIVEVLLKAGADVNAQDIIGQTPADLAAQRGHQDIAEVLQKAAGSPTPTPTTPTPTPTTPTPTPTGSDLGKKLLLAAERGQLDEVRILLKAGADVNAKDRAEGYTPLHIAAYQGHLEIVEVLLKAGADVNAKDRYGKTPLHLAAISGHLEIVEVLLKAGADVNAQDNKGSTPADLAADYGHQDIAEVLQKAAGSPTGSDLGQKLLEAAWAGQDDEVRELLKAGADVNAKNSRGWTPLHTAAQTGHLEIFEVLLKAGADVNAKNDKRVTPLHLAAALGHLEIVEVLLKAGADVNARDSWGTTPADLAAKYGHQDIAEVLQKAA
5 | – | binds | – | DARPin® protein #8 (designed binder, CD123-CD33-CD3 ankyrin repeat protein, no half-life extension; also called DARPin® #8; not shown: N-terminal His-tag) DLGKKLLEAARAGQDDEVRILMANGADVNALDWLGHTPLHLAAYEGHLEIVEVLLKNGADVNAIDDNNGFTPLHLAAIDGHLEIVEVLLKNGADVNAQDKFGKTAFDISIDNGNEDLAEILQKAAGSPTPTPTTPTPTPTTPTPTPTGSDLGDKLLLAATSGQDDEVRILLAAGADVNAKDYDGDTPLHLAADEGHLEIVEVLLKAGADVNAKDYSGSTPLHAAAAYGHLEIVEVLLKAGADVNAQDVFGYTPADLAAYVGHEDIAEVLQKAAGSPTPTPTTPTPTPTTPTPTPTGSDLGQKLLEAAWAGQDDEVRELLKAGADVNAKNSRGWTPLHTAAQTGHLEIFEVLLKAGADVNAKDDKGVTPLHLAAALGHLEIVEVLLKAGADVNAQDSWGTTPADLAAKYGHEDIAEVLQKAA
6 | – | binds | – | DARPin® protein #9 (designed binder, CD123-CD33-CD3 ankyrin repeat protein, no half-life extension; also called DARPin® #9; not shown: N-terminal His-tag) DLGKKLLEAARAGQDDEVRILMANGADVNALDWLGHTPLHLAAYEGHLEIVEVLLKNGADVNAIDDNNGFTPLHLAAIDGHLEIVEVLLKNGADVNAQDKFGKTAFDISIDNGNEDLAEILQKAAGSPTPTPTTPTPTPTTPTPTPTGSDLGDKLLLAATSGQDDEVRILLAAGADVNAKDYDGDTPLHLAADEGHLEIVEVLLKAGADVNAKDYSGSTPLHAAAAYGHLEIVEVLLKAGADVNAQDVFGYTPADLAAYVGHEDIAEVLQKAAGSPTPTPTTPTPTPTTPTPTPTGSDLGQKLLEAAWAGQDDEVRELLKAGADVNAKNSRGWTPLHTAAQTGHLEIFEVLLKAGADVNAKNDKRVTPLHLAAALGHLEIVEVLLKAGADVNARDSWGTTPADLAAKYGHQDIAEVLQKAA
7 | binds | binds | – | DARPin® protein #10 (designed binder, CD123-CD33-CD3 ankyrin repeat protein, no half-life extension; also called DARPin® #10; not shown: N-terminal His-tag) DLGKKLLEAARAGQDDEVRILMANGADVNALDWLGHTPLHLAAYEGHLEIVEVLLKNGADVNAIDDNNGFTPLHLAAIDGHLEIVEVLLKNGADVNAQDKFGKTAFDISIDNGNEDLAEILQKAAGSPTPTPTTPTPTPTTPTPTPTGSDLGDKLLLAATSGQDDEVRILLAAGADVNAKDYDGDTPLHLAADEGHLEIVEVLLKAGADVNAKDYSGSTPLHAAAAYGHLEIVEVLLKAGADVNAQDVFGYTPADLAAYVGHEDIAEVLQKAAGSPTPTPTTPTPTPTTPTPTPTGSDLGQKLLEAAWAGQLDEVRILLKAGADVNAKNSRGWTPLHTAAQTGHLEIFEVLLKAGADVNAKTNKRVTPLHLAAALGHLEIVEVLLKAGADVNARDTWGTTPADLAAKYGHRDIAEVLQKAA

Source: patent publication US20240254229A1 (Molecular Partners, published 2024)
